# Among all 390,000 compounds or so, about 910 (0.23%) were called active. Inconclusive results, whose numbers are uncertain, are shown with a selection of clear calls. Calls come from the whole dose curve; as a rule, active = well fitted inhibition curve with a large enough effect; inconclusive = small, poorly fitted or top-dose-only effect; inactive = no such curve, though single readings can be large or run the other way. A potency beside an inconclusive call is a rough fit, not a confirmed value.
# By UniProt entry, the sequences of proteins in these tests, tags left out. Where a name states a change or a piece, a line headed by the entry shows the natural chain unless it says otherwise.
# UniProt O94782: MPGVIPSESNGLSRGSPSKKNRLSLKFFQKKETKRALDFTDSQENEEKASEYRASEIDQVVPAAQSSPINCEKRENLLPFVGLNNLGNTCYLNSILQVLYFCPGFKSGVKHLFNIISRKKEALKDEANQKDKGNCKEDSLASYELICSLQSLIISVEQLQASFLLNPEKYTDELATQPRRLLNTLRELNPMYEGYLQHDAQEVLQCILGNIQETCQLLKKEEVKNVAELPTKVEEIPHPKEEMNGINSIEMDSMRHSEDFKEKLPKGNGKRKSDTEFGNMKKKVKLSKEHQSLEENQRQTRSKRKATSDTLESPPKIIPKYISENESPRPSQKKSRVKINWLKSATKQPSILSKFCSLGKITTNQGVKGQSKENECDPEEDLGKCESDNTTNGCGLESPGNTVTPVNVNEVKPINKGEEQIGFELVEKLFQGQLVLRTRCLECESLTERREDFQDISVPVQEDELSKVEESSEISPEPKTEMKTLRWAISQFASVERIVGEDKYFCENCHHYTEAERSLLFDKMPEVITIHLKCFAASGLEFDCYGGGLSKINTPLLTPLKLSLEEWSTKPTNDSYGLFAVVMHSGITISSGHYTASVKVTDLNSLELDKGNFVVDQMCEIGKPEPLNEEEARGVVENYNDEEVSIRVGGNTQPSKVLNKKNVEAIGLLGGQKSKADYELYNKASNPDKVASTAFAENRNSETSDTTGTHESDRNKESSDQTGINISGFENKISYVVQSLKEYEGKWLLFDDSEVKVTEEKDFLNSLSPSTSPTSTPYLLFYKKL
# Molecular target: Ubiquitin carboxyl-terminal hydrolase 1 (Homo sapiens) (UniProt O94782)
# Experiment: Inhibitors of USP1/UAF1: Primary Screen; note: nearly all actives have a fitted effect of over 60% in size
# Details: recombinant USP1/UAF1, Ub-Rhodamine cleavage fluorescence; activity change, negative = inhibition: at 57.1 µM (top of the series)
# Method in brief: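 USP1/UAF1 complex (1 nM) preincubated 15 min at room temperature with compound, then Ub-Rho substrate (150 nM final) added. Kinetic fluorescence at 480/540 nm over 6 reads at 60 s intervals; 50 mM HEPES pH 7.8, 0.5 mM EDTA, 0.1 mg/ml BSA, 1 mM TCEP, 0.01% Tween-20.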
# % is set by controls: 0 for no effect and ±100 for the full control effect; potency is the fitted concentration of half-maximal effect.
SMILES,Potency,"activity change, negative = inhibition"
CCOC(=O)c1ccc2ncc(C(=O)OCC)c(Nc3ccc(C)c(Br)c3)c2c1,"inconclusive: 39.8 µM [inhibitor, partial curve]",
O=C(CCl)N(Cc1cc(=O)[nH]c2ccccc12)c1ccccc1,"inconclusive: 44.7 µM [inhibitor, partial curve, poor fit]",
COc1ccc(C(=O)c2cn(CC(=O)Nc3ccc4c(c3)OCO4)c3ccc(OC)cc3c2=O)cc1,"inconclusive: 6.31 µM [inhibitor, partial curve]",
O=C(O)c1cccc(Cn2c(Cl)c(/C=N/NC(=O)c3cc4ccccc4cc3O)sc2=O)c1,"inconclusive: 44.7 µM [inhibitor, partial curve, poor fit]",
Cc1nc2ccccc2n1Cc1ccccc1,,inactive: -14.2%
CCN(CC)c1ccc(NC(=O)c2ccc(=O)[nH]c2)cc1S(=O)(=O)Nc1ccccc1OC,,inactive: -23.9%
O=C(Cn1ncc2c([nH]c3ccccc32)c1=O)N1CCCCC1,"inconclusive: 5.01 µM [inhibitor, full curve, poor fit]",
CCOc1ccccc1N(C)C(=O)NCc1noc2ccccc12,,inactive: -18.9%
COc1ccc(N2CCN(c3oc(-c4ccccc4OC)nc3C#N)CC2)cc1,"inconclusive: 39.8 µM [inhibitor, partial curve]",
CCCCC(=O)OCc1c(-c2cccc(OC)c2)ncc2ccccc12,"inconclusive: 39.8 µM [inhibitor, partial curve]",
COc1ccc(CCC(=O)OCC(=O)Nc2ccc(C)c(S(=O)(=O)N(C)C)c2)cc1,"inconclusive: 44.7 µM [inhibitor, partial curve]",
Oc1[nH]c2ccc(Br)cc2c1N=Nc1ccc(F)cc1,"inconclusive: 44.7 µM [inhibitor, partial curve, poor fit]",
Cc1cccc(OCC(=O)Nc2ccc3c(c2)N(C)C(=O)c2ccccc2S3)c1,"inconclusive: 79.4 µM [inhibitor, partial curve, poor fit]",
OCCOCCNc1ncnc2c1c(-c1ccccc1)cn2-c1ccccc1,"inconclusive: 50.1 µM [inhibitor, partial curve, poor fit]",
O=c1c(/C=C(\O)c2ccccc2)nc2ccccc2n1-c1ccccc1,"inconclusive: 31.6 µM [inhibitor, partial curve, poor fit]",
COc1ccc(-c2nn3c(COc4ccccc4)nnc3s2)cc1OC,,inactive: -3.74%
COc1ccc(-c2cc(C(F)(F)F)n3nc(C(=O)Nc4sc5c(c4C#N)CCC(C)C5)cc3n2)cc1OC (stereo unspecified),"inconclusive: 20 µM [inhibitor, partial curve, poor fit]",
CCCCSc1nc2sc3c(c2c(=O)n1-c1ccccc1)CCN(C)C3,,inactive: -15.6%
COc1ccc2c(c1)CC1c3c(cc4c(c3-2)OCO4)CC[N+]1(C)[O-] (stereo unspecified),"inconclusive: 6.31 µM [inhibitor, full curve, poor fit]",
COc1ccc(-n2c(C)cc(C(=O)Cn3nnc4ccccc4c3=O)c2C)cc1,,inactive: -19.4%
COC(C(=O)N/N=C/c1ccc(OCC(=O)N2CCOCC2)cc1)c1ccccc1 (stereo unspecified),"inconclusive: 7.08 µM [inhibitor, single point]",

# Reprinted at random: 2 compounds from above.
SMILES,Potency,"activity change, negative = inhibition"
COc1ccc(C(=O)c2cn(CC(=O)Nc3ccc4c(c3)OCO4)c3ccc(OC)cc3c2=O)cc1,"inconclusive: 6.31 µM [inhibitor, partial curve]",
COc1ccc(-c2nn3c(COc4ccccc4)nnc3s2)cc1OC,,inactive: -3.74%

# Remaining list, next part

SMILES,Potency,"activity change, negative = inhibition"
CC(NC(=O)c1ccc([N+](=O)[O-])o1)C12CC3CC(CC(C3)C1)C2 (stereo unspecified),,inconclusive: -33% [inhibitor]
C[C@H]1CN=C(Nc2ccccc2)N1CCC1CCCCC1,"inconclusive: 0.251 µM [inhibitor, full curve, poor fit]",
CC(=O)c1ccc(N2CCN(S(=O)(=O)c3ccc4[nH]c5c(c4c3)CCCCC5)CC2)cc1,,inactive: -19.3%
CC(=O)N1c2ccccc2C(=O)C1N1CCN(c2cc(Cl)ccc2C)CC1 (stereo unspecified),"inconclusive: 35.5 µM [inhibitor, partial curve]",
COc1ccc(-c2ccc3c(c2)O/C(=C\c2ccsc2)C3=O)cn1,"inconclusive: 22.4 µM [inhibitor, partial curve]",
O=c1[nH]nc(-c2ccc(OCc3ccc(Cl)cc3Cl)cc2)o1,,inactive: -2.08%
O=S(=O)(Nc1ccccn1)c1ccc(Cl)c2ccccc12,"inconclusive: 7.08 µM [inhibitor, single point]",
CCC1=C2CC[C@H]3C(=O)N(c4ccccc4)C(=O)[C@H]3[C@H]2[C@@]2(C)C(=NCC(=O)OC)OC(=O)N2C1=O,"inconclusive: 44.7 µM [inhibitor, partial curve, poor fit]",
COc1ccc(NC(=O)Nc2cccs2)cn1,"inconclusive: 25.1 µM [inhibitor, partial curve]",
CSc1nncc(/C(C)=N\Nc2ccccc2C)n1,"inconclusive: 31.6 µM [inhibitor, partial curve]",
COc1cc(/C=C2\C(=O)N(c3cccc(C(=O)O)c3)N=C2C)ccc1OCc1ccccc1,"inconclusive: 1.78 µM [inhibitor, full curve, poor fit]",
O=C(CSc1nnc(-c2ccccc2F)o1)N1CCc2ccccc21,"inconclusive: 44.7 µM [inhibitor, partial curve]",
CCCCCCCc1n[nH]c(=S)n1Cc1ccccc1,"inconclusive: 39.8 µM [inhibitor, partial curve]",
CCCCn1nc2cc(C(=O)NCC34CC5CC(CC(C5)C3)C4)ccc2c1OCC,"inconclusive: 39.8 µM [inhibitor, single point]",
Cc1cc(C)cc(NC(=O)c2cccc(N3CCCS3(=O)=O)c2)c1,,inactive: 2.85%
Cc1ccc(-n2c(=O)c3sccc3n(CC(=O)NC3CCCCC3)c2=O)cc1,"inconclusive: 15.8 µM [inhibitor, partial curve]",
c1ccc(Cn2c(CSc3nnnn3-c3ccccc3)nc3ccccc32)cc1,,inactive: -0.704%
NC(N)=NC1=NC(=O)/C(=C/c2ccccc2-n2cccn2)S1,"inconclusive: 5.62 µM [inhibitor, full curve, poor fit]",
COc1cccc(C(=O)N2CC(=O)Nc3ccc(C)cc3C2c2ccc(F)cc2)c1OC (stereo unspecified),"inconclusive: 3.55 µM [inhibitor, partial curve]",
CC(=O)SC1CC(=O)C=C2CCC3C4CCC(=O)OC4(C)CCC3C21C (stereo unspecified),,inactive: -10.1%

# — PubChem BioAssay AID743255 (National Center for Advancing Translational Sciences (NCATS), 2014)
